Measured values: patent publication US20100168038A1, “USE OF COMPOUNDS IN COMBINATION WITH GAMMA-IRRADIATION FOR THE TREATMENT OF CANCER” (priority 2006, published 2010)
This continues a long series; more values of the same kind are listed elsewhere. Residues, ends and D or L forms follow the SMILES beside them.

Tested on: EL-4 lymphoma cells
Assay: Tumor growth of EL-4 lymphoma in C57Bl/6 mice, compound with gamma-irradiation
Format: in vivo
Settings: EL-4, irradiation + Z-GLA-OH; day 65; single mouse
Description: Tumor Growth Experiments. Tumor cells were washed in PBS and resuspended in a volume of 200 micro-l per inoculate. The cells were then inoculated into the right flank at 10^6 per mouse and growth of the tumor was monitored by measurement two times per week. The initiation of anti-tumor treatment of the mice was to some extent individualized according to when tumor growth started in each mouse. The mice were irradiated with 4 Gy prior to tumor inoculation in order to inhibit anti-tumor immune responses. The tumor volume was calculated as the mean volume in mice with tumors growth, according to (a1×a2×a3)/2 (the numbers ai denote tumor diameter, width and depth). The time of first palpation varied between different mice, although the general pattern of growth was similar in virtually all of the mice. In most diagrams a log-scale is used to better visualize the therapeutic effects against small tumors, i.e. the presence of complete rejections. For inhibition of TPPII in vivo we made intraperitoneal injections with 13.8 mg per kg of body weight (14 micro-l of a 50 mM solution/mouse) of the Subtilisin inhibitor Z-Gly-Leu-Ala-OH (Z-GLA-OH, Bachem, Weil am Rhein, Germany) twice per week, diluted into 200 micro-l PBS. All gamma-irradiations were full body exposures. […]

CC(C)C[C@H](NC(=O)CNC(=O)OCc1ccccc1)C(=O)N[C@@H](C)C(=O)O [Z-GLA-OH, Z-Gly-Leu-Ala-OH] (HELM PEPTIDE1{[O=C(OCc1ccccc1)[*:2]].G.L.A}$$$$V2.0)
tumor volume: 0.10 mm^3
